# Measurements taken from patent US8008458B2, “Fatty acid phenolic conjugates” (Indiana University Health Inc., priority 2002, dated 2011).
# For at least one compound, name, drawing or mass did not settle the structure.
# Experiments:
# Type in all cases: cell-based
# Jurkat leukemic cells = experiment: Jurkat leukemic cell growth and viability (WST-1 Cell Proliferation Kit); conditions: DHA alone, up to 30 μM, 24 hours, RPMI media containing 2% serum
# Protocol: In order to evaluate the anti-proliferative activity and synergism between DHA and RVT, the two compounds were added separately to cell cultures containing Jurkat leukemic cells. In a separate experiment, a mixture of DHA and RVT components were added to the Jurkat leukemic cell cultures. The results are illustrated in FIG. 8 as a bar graph. Jurkat cells (Jurkat clone E6-1 from American Type Culture Collection of Manassas, Va. (5×10^4/well)) were incubated with either DHA or RVT, or a combination as indicated in a 96-well plate for 24 hours at 37° C. using a 5% CO2 in RPMI media containing 2% serum. Cell growth and viability were determined using a WST-1 Cell Proliferation Kit (sold by Roche Molecular Biochemicals of Indianapolis, Ind.). The control was a “ethanol-treated” control group. For the results illustrated in FIG. 8, the average was taken of three separate experiments. For the combination of DHA and RVT, a student t test provided a P<0.001 relative to the “ethanol-treated” control group. […] However, when the two components were combined into a single formulation, a synergistic inhibition of Jurkat cell growth was observed. The combination of DHA (30 μM) and RVT (10 μM) inhibited cell growth by about 60%. This is indicative of a synergistic interaction between DHA and RVT on cancer cell growth. […]
# [1] = system: MDA-231-MB breast cancer cells; experiment: Induction of apoptosis, activated caspase 3 (FITC-DEVD-FMK fluorescence microscopy); conditions: 25 μM or similar concentrations, 4 hours at 37° C. (FIG. 11)
# Protocol: DHA and EPA conjugates of propofol are used to test their activities against MDA-231-MB breast cancer cells. Induction of apoptosis was assayed by incubating cells with DHA, EPA, or propofol alone or DHA, EPA with propofol as well as DHA-, and EPA as propofol conjugates for 4 hours at 37° C.
# [2] = system: breast carcinoma MDA-MB-231 cells; experiment: Cell adhesion assay, adherence to human vitronectin; conditions: 45 min at 37° C., compared with vehicle treated control (FIG. 13)
# Protocol: The cell adhesion assay was performed according to the procedure described in Deryugina, E. I., Ratnikov, B., Postnova, T. I., Rozanov, D. V., Strongin, A. Y. (2002) J. Biol. Chem. 277, 9749-9756. The cell adhesion assay was preformed using cyctomatrix of human vitronectin in a 96-well plate (Chemicon International Incorp. of Temecula, Calif.). Each well was incubated with 100 μL of breast carcinoma MDA-MB-231 cells (1×10^5 cells/ml) at 37° C. for 45 min in a CO2 incubator. Individual wells were treated with one of the following: (a) individual agents: DHA, EPA, and propofol; or (b) the combined agents: DHA and propofol, and EPA and propofol; or (c) the conjugates DHA-propofol, or EPA propofol (prepared as described above in Examples 2 and 3). After incubation, the wells were washed three times with PBS, and the adhered cells were stained with crystal violet in 10% ethanol for 5 min at room temperature. The excess stain was subsequently removed by washing the wells six times with PBS. The stained cells were dissolved in 100 microliters (μL) of solubilizing buffer (1:1 mixture of 0.1M NaH2PO4 at a pH of 4.5 in 50% ethanol) and the absorbance of each of the resulting samples was read at 540 nm. The absorbance of dye in the control (vehicle treated cells) was regarded as 100%, and the percent adherence of treated cells was calculated in comparison to that control.
structure (smiles),measurement,setting,value
"CC/C=C\C/C=C\C/C=C\C/C=C\C/C=C\C/C=C\CCC(=O)O [DHA, docosahexaenoic acid]",effect on Jurkat cell growth,Jurkat leukemic cells,neither the DHA (up to 30 μM) nor the RVT (10 μM) alone had any significant effect
same,induction of apoptosis,[1],not very effective
same,inhibition of adherence of cancerous cells to vitronectin,[2],not displayed
